System: sand fly Lutzomyia longipalpis
Assay: warm body repellence assay with sand flies
Format: in vivo
Experimental: To test the effects of repellent compounds or compositions disclosed herein on other blood-feeding arthropods, a warm body repellence assay (Krober et. al. (2010). An In Vitro Assay for Testing Mosquito Repellents Employing a Warm Body and Carbon Dioxide as a Behavioral Activator. Journal of the American Mosquito Control Association 26(4): 381-386] was conducted using the sand fly Lutzomyia longipalpis (Diptera: Psychodidae), the principal vector of Leishmania (or leismaniasis) in the Americas.
[…] Fifty L. longipalpis sandflies (male:female ratio 1:1) of 3-7 days old were tested during the scotophase under conditions described for A. gambiae in Example 6. The test cages were lined with filter paper. Reduction in the number of landings by L. longipalpis sand fly females on a warm body treated with different test products compared to the control with solvent (ethanol p.a.) alone was used to evaluate repellence. Tests were conducted in complete darkness using IR LEDs to illuminate the warm body. Landings counted during 2 minutes were normalized by experimental day, cage, and number of females by a mixed linear model before testing for differences.

SMILES: CCCCOC(=O)C=Cc1ccccc1 [butyl-cinnamate, butyl 3-phenylprop-2-enoate]
- Difference to DEET at 20 nmol/cm^2 (test product at 20 nmol/cm^2): *** (P ≤ 0.001)
- Difference to DEET at 20 nmol/cm^2 (test product at 200 nmol/cm^2): * (P ≤ 0.1)

Source: patent US10390536B2, “Methods, compounds and compositions for repelling insects and/or arachnids” (National Center for Scientific Research “Demokritos”, priority 2013, dated 2019)
